PubChem BioAssay AID504808, Drosophila RNAi Screening Center | 2011
The screen tested about 21,000 reagents; below is a random part of those that have a named target and a result. Of all reagents, 18 (0.084%) are marked active. 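Raw counts without plate normalisation, one of two replicates; the ratio scores behind the calls were not deposited.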 Names joined by + are all predicted targets of the reagent. Not given: the amount of reagent, the time to read-out.

- Test: 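Genes whose loss lifts activity of an E2F-responsive reporter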 (primary screen)
- Cells: Drosophila S2 cells
- Reagents: long dsRNA against Drosophila genes
- Measurement: 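Dual luciferase plate measurements; E2F-specific signal taken as firefly over Renilla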
- Scale: E2F firefly: higher = more E2F reporter activity; Renilla normaliser: higher = more normaliser reporter signal
- Active means: 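Called active if the normalised E2F reporter went up by over 50%; the cutoff is arbitrary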

no.	target	DRSC id	E2F firefly, rep 1	Renilla normaliser, rep 1	Outcome
1	AsnRS-m (Asparaginyl-tRNA synthetase, mitochondrial)	DRSC07010	1.50e5	5017	inactive
2	GatB (Glutamyl-tRNA amidotransferase, subunit B)	DRSC15807	1.14e5	6108	inactive
3	lncRNA:CR32553 (long non-coding RNA:CR32553)	DRSC19229	85939	3370	inactive
4	CG33689	DRSC09424	1.37e5	3893	inactive
5	CG4887	DRSC00670	1.75e5	6180	inactive
6	CG9541	DRSC03257	1.64e5	5384	inactive
7	CG5938	DRSC15923	1885	932	inactive
8	CG7694	DRSC16288	1.34e5	6272	inactive
9	CG8159	DRSC16392	1.38e5	6685	inactive
10	Mhc (Myosin heavy chain)	DRSC03367	99015	4507	inactive
11	CG2794	DRSC00534	1.81e5	5949	inactive
12	Tango6 (Transport and Golgi organization 6)	DRSC02671	64005	208	inactive
13	Saysd1 (SAYSVFN motif domain containing 1)	DRSC14664	1.13e5	6543	inactive
14	rec (recombination-defective)	DRSC14998	1.17e5	5823	inactive
15	rec (recombination-defective)	DRSC15656	1.38e5	5904	inactive
16	Cyp4e3 (Cytochrome P450 4e3)	DRSC03306	1.31e5	4912	inactive
17	CG3355	DRSC00598	1.45e5	5115	inactive
18	CG33270	DRSC10584	56421	5521	inactive
19	ste24b (ste24b prenyl protease type I)	DRSC07315	1.43e5	4815	inactive
20	Cog4 (Component of oligomeric golgi complex 4)	DRSC03057	86805	3436	inactive
21	Nepl14 (Neprilysin-like 14)	DRSC15631	1.49e5	5828	inactive
22	Desi (Desiccate)	DRSC14909	1.57e5	7165	inactive
23	Rhp (Rhophilin)	DRSC20279	1.60e5	6145	inactive
24	CG18528	DRSC15340	1.05e5	6335	inactive
25	CG1578	DRSC19729	8118	756	inactive
26	CG31140	DRSC13649	86899	2477	inactive
27	CG31140	DRSC14603	75160	3215	inactive
28	CG31140	DRSC15904	1.24e5	6257	inactive
29	Ncoa6 (Nuclear receptor coactivator 6)	DRSC02353	71582	4033	inactive
30	CG6126	DRSC15971	73542	2756	inactive
31	CG15891 + CG15892	DRSC18095	8002	760	inactive
32	CG15891 + CG15892	DRSC18096	1.04e5	4872	inactive
33	Cnep1r1 (CTD nuclear envelope phosphatase 1 regulatory subunit 1)	DRSC20620	1.42e5	5219	inactive
34	kuk (kugelkern)	DRSC15730	68219	3168	inactive
35	c12.1	DRSC18750	87037	5805	inactive
36	stumps	DRSC13045	84631	2752	inactive
37	stumps	DRSC15332	91727	5448	inactive
38	stumps	DRSC17073	62413	3554	inactive
39	Shrm (Shroom)	DRSC06437	98609	4932	inactive
40	Shrm (Shroom)	DRSC06438	97026	3983	inactive
41	Shrm (Shroom)	DRSC07221	3057	211	inactive
42	Nlg4 (Neuroligin 4)	DRSC15108	1.37e5	6984	inactive
43	Nlg4 (Neuroligin 4)	DRSC15109	1.40e5	6864	inactive
44	Nlg4 (Neuroligin 4)	DRSC15700	1.47e5	7329	inactive
45	Nlg4 (Neuroligin 4)	DRSC15701	1.07e5	5016	inactive
46	CG14196	DRSC19551	1.24e5	7295	inactive
47	CG30076	DRSC05494	1.36e5	4199	inactive
48	mex1 (midgut expression 1)	DRSC11368	1.56e5	6757	inactive
49	CG11788	DRSC06084	1.37e5	4828	inactive
50	msi (musashi)	DRSC17003	87411	5361	inactive
51	TotF (Turandot F)	DRSC02305	90292	3860	inactive
52	Atg17 (Autophagy-related 17)	DRSC12221	1.49e5	6667	inactive
53	CG11403	DRSC18532	2110	804	inactive
54	CG11889 + CG11891	DRSC14426	1.19e5	6827	inactive
55	CG11889 + CG11891	DRSC14427	1.18e5	5869	inactive
56	CG13359	DRSC18539	1.28e5	6114	inactive
57	mnd (minidiscs)	DRSC11370	1.61e5	8009	inactive

15 successive records already listed, for reference:
no.	target	DRSC id	E2F firefly, rep 1	Renilla normaliser, rep 1	Outcome
34	kuk (kugelkern)	DRSC15730	68219	3168	inactive
35	c12.1	DRSC18750	87037	5805	inactive
36	stumps	DRSC13045	84631	2752	inactive
37	stumps	DRSC15332	91727	5448	inactive
38	stumps	DRSC17073	62413	3554	inactive
39	Shrm (Shroom)	DRSC06437	98609	4932	inactive
40	Shrm (Shroom)	DRSC06438	97026	3983	inactive
41	Shrm (Shroom)	DRSC07221	3057	211	inactive
42	Nlg4 (Neuroligin 4)	DRSC15108	1.37e5	6984	inactive
43	Nlg4 (Neuroligin 4)	DRSC15109	1.40e5	6864	inactive
44	Nlg4 (Neuroligin 4)	DRSC15700	1.47e5	7329	inactive
45	Nlg4 (Neuroligin 4)	DRSC15701	1.07e5	5016	inactive
46	CG14196	DRSC19551	1.24e5	7295	inactive
47	CG30076	DRSC05494	1.36e5	4199	inactive
48	mex1 (midgut expression 1)	DRSC11368	1.56e5	6757	inactive

More results:
no.	target	DRSC id	E2F firefly, rep 1	Renilla normaliser, rep 1	Outcome
58	Ir7b (Ionotropic receptor 7b)	DRSC18009	36514	3102	inactive
59	vih (vihar)	DRSC09778	89568	4680	inactive
60	Decay (Death executioner caspase related to Apopain/Yama)	DRSC16930	99242	4810	inactive
61	Alg11 (ALG11, alpha-1,2-mannosyltransferase)	DRSC11647	84939	3747	inactive
62	CG16852	DRSC01876	1.09e5	3970	inactive
63	Top3beta (Topoisomerase 3beta)	DRSC18724	7575	740	inactive
64	CG33093	DRSC15775	50586	3168	inactive
65	CG6142	DRSC15976	1.11e5	6649	inactive
66	EndoG (Endonuclease G)	DRSC07292	86695	4312	inactive
67	Prosbeta6 (Proteasome beta6 subunit)	DRSC11256	64269	3909	inactive
68	CG1607	DRSC15130	1870	848	inactive
69	Frq1 (Frequenin 1)	DRSC19961	2.55e5	7260	inactive
70	CG10752	DRSC09799	81132	3472	inactive
71	pea (peanuts)	DRSC07120	2269	234	inactive
72	SLIRP2 (SRA stem-loop interacting RNA binding protein 2)	DRSC16363	1.28e5	6314	inactive
73	mthl10 (methuselah-like 10)	DRSC08504	95147	4064	inactive
74	mthl10 (methuselah-like 10)	DRSC08505	98092	3963	inactive
75	superdeath (Suppressor of ER stress-induced death)	DRSC14868	48901	3575	inactive
76	DIP-kappa (Dpr-interacting protein kappa)	DRSC01336	1.31e5	7168	inactive
77	DIP-kappa (Dpr-interacting protein kappa)	DRSC01337	1.38e5	6383	inactive
78	Usp47 (Ubiquitin specific protease 47)	DRSC11313	83740	3315	inactive
79	Akap200 (A kinase anchor protein 200)	DRSC01864	1.06e5	3624	inactive
80	Bap170 (Brahma associated protein 170kD)	DRSC04964	89704	3903	inactive
81	CG12105	DRSC08255	85525	3971	inactive
82	PpD6 (Protein phosphatase D6)	DRSC00774	1.49e5	5028	inactive
83	GstE4 (Glutathione S transferase E4)	DRSC06674	1.44e5	4398	inactive
84	CG5359	DRSC15780	1.63e5	5719	inactive
85	Amy-d + Amy-p	DRSC21242	1.31e5	7043	inactive
86	rngo (rings lost)	DRSC19903	56249	3823	inactive
87	MSBP (membrane steroid binding protein)	DRSC20146	8319	644	inactive
88	Mrgn1 (Mahogunin ring finger 1)	DRSC20223	7922	732	inactive
89	CG3430	DRSC02713	89947	4144	inactive
90	fng (fringe)	DRSC11455	83425	3600	inactive
91	fng (fringe)	DRSC11887	78844	3330	inactive
92	kune (kune-kune)	DRSC04860	1.15e5	4286	inactive
93	CG8620	DRSC11020	96509	3630	inactive
94	Pex14 (Peroxin 14)	DRSC11754	1.33e5	6565	inactive
95	CG31948	DRSC00740	1.73e5	6785	inactive
96	cl (clot)	DRSC02118	87244	3416	inactive
97	CG1638	DRSC15132	64132	4772	inactive
98	Prosbeta3 (Proteasome beta3 subunit)	DRSC16801	46163	3368	inactive
99	Mp (Multiplexin)	DRSC10193	70259	4164	inactive
100	Mp (Multiplexin)	DRSC11029	95389	4131	inactive
101	Mp (Multiplexin)	DRSC11030	81535	3689	inactive
102	ergic53	DRSC11389	96019	3951	inactive
103	CG14712	DRSC14935	48809	2616	inactive
104	Cpr11B (Cuticular protein 11B)	DRSC19859	7850	740	inactive
105	fln (flightin)	DRSC11346	66556	3990	inactive
106	mwh (multiple wing hairs)	DRSC08382	90358	4084	inactive
107	CG4080	DRSC10398	71595	3895	inactive
